In patent US8633177B2, “Nitroxyl (HNO) releasing compounds and uses thereof in treating diseases” (The United States of America, as represented by the …, priority 2010, dated 2014):

Test system: metmyoglobin (metMb)
Experiment: Reductive nitrosylation of metmyoglobin (HNO trapping)
Parameters: species or system horse
Conditions: for yield of MbNO from metMb: 100 μM compound, 50 μM metMb, PBS pH 7.4, 37° C., out of a possible 50 μM; for yield of MbNO from metMb / effect of GSH on reductive nitrosylation of metMb: deaerated; for effect of GSH on reductive nitrosylation of metMb: 250 μM GSH

SMILES	yield of MbNO from metMb	effect of GSH on reductive nitrosylation of metMb	reaction with metMb (2% guinea pig serum, physiological conditions)
CC(C)N[N+]([O-])=N[O-].[Na+] [Compound 1, sodium 1-(N-isopropylamino)diazen-1-ium-1,2-diolate, reference compound]	approximately 25 μM	GSH enhanced the formation of MbNO	
CC(=O)OCO/N=[N+](\[O-])NC(C)C [Compound 2, O^2-(acetoxymethyl)1-(isopropylamino)diazen-1-ium-1,2-diolate]	~47 µM	GSH inhibited reductive nitrosylation	
CC(=O)Oc1ccccc1C(=O)OCON=[N+]([O-])NC(C)C [IPA/NO-aspirin, O^2-(Acetylsalicyloyloxymethyl)-1-(N-isopropylamino)-diazen-1-ium-1,2-diolate]			underwent reductive nitrosylation
